The record followed here is article PMC8158815.

Sequences of proteins named here, by UniProt entry; tags and fusion partners are left off.
UniProt O00571: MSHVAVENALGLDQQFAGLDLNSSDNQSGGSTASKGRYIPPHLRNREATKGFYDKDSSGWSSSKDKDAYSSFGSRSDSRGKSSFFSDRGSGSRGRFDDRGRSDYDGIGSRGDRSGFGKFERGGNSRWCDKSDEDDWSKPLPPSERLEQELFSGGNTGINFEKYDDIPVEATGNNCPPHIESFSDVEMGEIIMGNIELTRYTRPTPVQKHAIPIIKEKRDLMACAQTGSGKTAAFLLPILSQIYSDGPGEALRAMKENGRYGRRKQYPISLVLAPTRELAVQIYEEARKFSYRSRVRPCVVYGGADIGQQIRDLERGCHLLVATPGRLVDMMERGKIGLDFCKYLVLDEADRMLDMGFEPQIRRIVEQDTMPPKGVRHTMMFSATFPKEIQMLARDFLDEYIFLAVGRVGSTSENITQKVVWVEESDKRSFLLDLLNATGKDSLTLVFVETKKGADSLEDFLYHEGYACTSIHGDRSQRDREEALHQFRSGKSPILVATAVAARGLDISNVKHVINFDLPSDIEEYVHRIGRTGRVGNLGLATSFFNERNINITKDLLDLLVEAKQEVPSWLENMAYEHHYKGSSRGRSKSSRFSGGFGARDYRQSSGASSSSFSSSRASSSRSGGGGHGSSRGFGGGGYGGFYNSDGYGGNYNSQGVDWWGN

These are yes or no findings as the source states them, for the method shown. In cells and extracts the contact can be indirect. Some results given as binding are weak or reduced against the parent protein; the word gives no strength. Where a sequence is shown, tags or fusion partners need not be part of it.

Test [1] addresses T1, NLRP11-eGFP (stable Flp-In T-REx HEK293 line) (human) (UniProt P59045).
T1 sequence: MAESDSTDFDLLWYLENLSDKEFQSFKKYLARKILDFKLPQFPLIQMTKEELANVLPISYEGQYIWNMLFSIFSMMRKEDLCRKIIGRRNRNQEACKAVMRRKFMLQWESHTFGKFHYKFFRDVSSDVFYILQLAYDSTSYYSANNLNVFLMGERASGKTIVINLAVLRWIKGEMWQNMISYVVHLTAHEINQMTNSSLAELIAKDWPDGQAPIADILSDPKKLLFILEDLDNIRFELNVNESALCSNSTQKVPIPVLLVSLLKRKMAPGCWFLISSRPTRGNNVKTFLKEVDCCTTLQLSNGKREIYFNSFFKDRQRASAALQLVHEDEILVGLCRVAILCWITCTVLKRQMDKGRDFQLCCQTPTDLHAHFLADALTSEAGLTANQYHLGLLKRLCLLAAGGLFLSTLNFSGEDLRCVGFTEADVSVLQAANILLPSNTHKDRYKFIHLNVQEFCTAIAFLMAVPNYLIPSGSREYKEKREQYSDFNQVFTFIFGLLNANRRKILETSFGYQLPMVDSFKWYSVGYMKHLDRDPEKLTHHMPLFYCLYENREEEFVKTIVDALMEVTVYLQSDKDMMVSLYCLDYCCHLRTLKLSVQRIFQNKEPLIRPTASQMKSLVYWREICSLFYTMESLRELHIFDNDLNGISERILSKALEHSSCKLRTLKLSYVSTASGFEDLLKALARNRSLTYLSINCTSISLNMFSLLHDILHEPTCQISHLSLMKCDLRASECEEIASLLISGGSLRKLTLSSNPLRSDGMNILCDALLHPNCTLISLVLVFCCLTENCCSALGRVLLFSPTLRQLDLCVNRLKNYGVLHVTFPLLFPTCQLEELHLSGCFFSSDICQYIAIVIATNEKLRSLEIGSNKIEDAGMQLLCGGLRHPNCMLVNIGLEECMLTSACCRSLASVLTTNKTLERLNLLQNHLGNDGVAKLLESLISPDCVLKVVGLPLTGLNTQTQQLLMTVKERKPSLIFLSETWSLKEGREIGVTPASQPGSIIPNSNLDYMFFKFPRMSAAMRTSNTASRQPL
The test is described as follows: co-IP; GFP-Trap agarose precipitation of NLRP11-eGFP (or eGFP as control) from doxycycline-induced HEK293 FlpIn cells, 4°C, 3 h; blot for endogenous DDX3X; also after Sendai virus infection for the indicated times.

Test [2] addresses eGFP-DDX3X (human) (UniProt O00571). The test is described as follows: co-IP; GFP-Trap agarose precipitation of eGFP-DDX3X (or empty vector) from transiently transfected HEK293T cells co-expressing myc-NLRP11 constructs, 4°C, 3 h; blot for myc.

As to “DDX3X (endogenous, HEK293) (from UniProt O00571 1-662)”, the binding entry in test [1] is listed as “binds”.

B1: myc-NLRP11 NACHT (domain or fragment, UniProt P59045 147-470)
chain: LNVFLMGERASGKTIVINLAVLRWIKGEMWQNMISYVVHLTAHEINQMTNSSLAELIAKDWPDGQAPIADILSDPKKLLFILEDLDNIRFELNVNESALCSNSTQKVPIPVLLVSLLKRKMAPGCWFLISSRPTRGNNVKTFLKEVDCCTTLQLSNGKREIYFNSFFKDRQRASAALQLVHEDEILVGLCRVAILCWITCTVLKRQMDKGRDFQLCCQTPTDLHAHFLADALTSEAGLTANQYHLGLLKRLCLLAAGGLFLSTLNFSGEDLRCVGFTEADVSVLQAANILLPSNTHKDRYKFIHLNVQEFCTAIAFLMAVPNYL
Consider B1, for which, in test [2], the binding result is “binds weakly”.
